Test: Radical measurement by ESR of GAL691 and known Glycer-AGEs (Example 19)
Type: physicochemical
Details: 10 mg/mL, PBS solution

SMILES | ESR signal derived from a radical
CC(=O)N[C@@H](CCCC[n+]1cc(O)cc(CO)c1)C(=O)O [GLAP] | no signal derived from a radical was able to be detected
CC(=O)NC(CCCCNCc1cc(O)c[n+](CCCCC(NC(C)=O)C(=O)O)c1)C(=O)O (centres unmarked) [Lys-hydroxy-triosidine] | no signal derived from a radical was able to be detected

Source: patent US12391751B2, “Antibody against advanced glycation end products and use thereof” (Bloom Technology Corporation, priority 2018, dated 2025)
